# Data reported in PubChem BioAssay AID1671190 (National Center for Advancing Translational Sciences (NCATS), 2021).
# Amino acid sequences for entries named in this document (tags omitted). A change or cut given only in a name is not applied to a line headed by its entry.
# UniProt P18054: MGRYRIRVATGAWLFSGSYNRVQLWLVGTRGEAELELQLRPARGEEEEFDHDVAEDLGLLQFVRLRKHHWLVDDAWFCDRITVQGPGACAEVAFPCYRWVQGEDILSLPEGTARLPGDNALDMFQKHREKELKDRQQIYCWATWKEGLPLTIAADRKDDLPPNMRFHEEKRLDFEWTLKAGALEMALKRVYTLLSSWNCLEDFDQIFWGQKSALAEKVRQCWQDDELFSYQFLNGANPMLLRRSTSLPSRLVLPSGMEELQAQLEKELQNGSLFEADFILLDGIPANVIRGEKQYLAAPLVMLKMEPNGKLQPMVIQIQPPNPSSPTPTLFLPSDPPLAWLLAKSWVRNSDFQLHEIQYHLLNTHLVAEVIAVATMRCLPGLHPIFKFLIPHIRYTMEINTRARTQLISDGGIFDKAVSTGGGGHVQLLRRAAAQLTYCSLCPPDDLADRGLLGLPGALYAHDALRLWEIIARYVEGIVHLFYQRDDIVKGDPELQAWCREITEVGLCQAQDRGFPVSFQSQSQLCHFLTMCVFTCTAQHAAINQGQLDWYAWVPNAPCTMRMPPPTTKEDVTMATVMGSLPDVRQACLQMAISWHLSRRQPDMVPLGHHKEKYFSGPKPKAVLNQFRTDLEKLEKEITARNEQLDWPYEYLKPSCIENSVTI
# The whole screen tested about 580,000 compounds, of which about 6,100 (1.1%) were called active. The inconclusive results got no clear call from the source; some entries with a clear call stand among them for comparison. Calls follow the shape of the dose curve; as a rule, active = well fitted inhibition curve with a large enough effect; inconclusive = small, poorly fitted or top-dose-only effect, or another doubt; inactive = no such curve, though single readings can be large or run the other way. A potency beside an inconclusive call is a rough fit, not a confirmed value.
# Molecular target: Polyunsaturated fatty acid lipoxygenase ALOX12 (Homo sapiens) (UniProt P18054)
# Test: Primary qHTS assay for inhibitors of human arachidonate 12S-lipoxygenase (ALOX12): Round 2
# Settings: purified 12hLO, xylenol orange hydroperoxide absorbance; series mostly up to 108 µM
# Outline: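 Hydroperoxide product was detected by ferrous iron/xylenol orange as the 573 to 405 nm absorbance ratio. Arachidonic acid at 40 uM (final) was turned over for 30 min at room temperature by 150 nM human 12hLO, pH 7.0 Hepes buffer, after 15 min compound preincubation.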
# Potency is read from the fitted curve at half-maximal effect.
row,Compound,Potency
1,Cc1cccc(S(=O)(=O)N2C[C@@H](F)C[C@H]2C(=O)N2CCc3ccccc3C2)c1,"inconclusive: 31.6 µM [inhibitor, full curve]"
2,CC[C@@H](C)CN1C(=O)N[C@@H](CCc2ccccc2)C(C(C)=O)=C1C,"inconclusive: 79.4 µM [inhibitor, single point]"
3,Cc1ccc(C)c(S(=O)(=O)N=Nc2c(O)[nH]c3ccccc23)c1,"inconclusive: 50.1 µM [inhibitor, partial curve, poor fit]"
4,Cc1ccc(C(=O)N/C(=C/c2ccccc2)C(=O)NC(CC(C)C)C(=O)O)cc1 (centres undefined),inactive
5,COc1ccccc1Nc1cc(C(=O)NCc2cccs2)c2ccccc2n1,"inconclusive: 7.94 µM [inhibitor, full curve, poor fit]"
6,CC(=O)NS(=O)(=O)c1ccc(NC(=S)NC(=O)c2ccco2)cc1,"inconclusive: 1 µM [inhibitor, full curve, poor fit]"
7,Cc1ccc(/C(CSc2nccn2-c2ncc(C(F)(F)F)cc2Cl)=N\O)cc1,"inconclusive: 5.62 µM [inhibitor, partial curve, poor fit]"
8,CCC(=O)N1CCc2cc(S(=O)(=O)CCC(=O)NCc3ccccc3OC)ccc21,inactive
9,O=C(NN=C1CCCC1)c1[nH]c2ccc(Cl)cc2c1-c1ccccc1,inactive
10,CN(N)c1nc(-c2ccccc2)cc(-c2ccccc2)n1,"inconclusive: 100 µM [inhibitor, single point]"
11,Cc1cc2ncc(C(=O)NCC(F)F)cn2n1,inactive
12,O=C(/C=C/c1ccc(-c2ccccc2[N+](=O)[O-])o1)c1ccco1,"inconclusive: 50.1 µM [inhibitor, partial curve, poor fit]"
13,CCOc1ccc2ccccc2c1CNCCc1ccc(S(N)(=O)=O)cc1,"inconclusive: 50.1 µM [inhibitor, partial curve, poor fit]"
14,Cc1nnc(SCC(=O)N/N=C/c2cc(Cl)c(O)c(Cl)c2)s1,inactive
15,Cc1cc(OCCn2cc(C(=O)C(F)(F)F)c3ccccc32)ccc1Cl,inactive
16,COc1ccc(-c2cnc3c(NC=O)cc(-c4ccccc4OC)cn23)cc1OC,active: 6.31 µM
17,CCN(CC)c1ccc(/C=N/NC(=O)c2cccc(S(=O)(=O)Nc3ccccc3OC)c2)cc1,inactive
18,COc1ccc(Nc2nc3[nH]c(=O)cc(O)c3s2)cc1,"inconclusive: 50.1 µM [inhibitor, partial curve, poor fit]"
19,CSC1=C(C#N)C(=O)NC(c2ccccc2O)S1 (centres undefined),"inconclusive: 39.8 µM [inhibitor, partial curve, poor fit]"
20,CCOCC(=O)Nc1c(C(=O)N2CCN(c3ncccn3)CC2)oc2ccccc12,inactive
21,Cc1nc(-c2ccccc2)sc1CCNS(=O)(=O)c1ccc(Br)cc1,"inconclusive: 14.1 µM [inhibitor, partial curve, poor fit]"
22,CCOc1cc(/C=C/C(=O)O)ccc1OCCOc1ccccc1,inactive

row,Compound,Potency
1,O=C1c2ccccc2-c2n[nH]c3cccc1c23,"inconclusive: 24.3 µM [inhibitor, single point]"
2,COc1cccc(S(=O)(=O)Nc2c(NC3CCCC3)c3ccccc3oc2=O)c1,"inconclusive: 100 µM [inhibitor, partial curve, poor fit]"
3,OCCCNc1nc(-c2ccccc2)c2cc(Br)ccc2n1,"inconclusive: 89.1 µM [inhibitor, single point]"
4,Cn1c(CN2CCOCC2)nnc1SCc1ccccc1Cl,"inconclusive: 44.7 µM [inhibitor, partial curve, poor fit]"
5,Cc1cccc(C)c1NC(=O)CSCc1cc(=O)n2ccsc2n1,"inconclusive: 50.1 µM [inhibitor, partial curve, poor fit]"
6,Cc1ccc(/C=C/C(=O)c2cc(Br)ccc2OC(=O)c2ccco2)cc1,"inconclusive: 0.355 µM [inhibitor, full curve, poor fit]"
7,CCN(C[C@H]1N[C@@](CC)(C(=O)OC)[C@H]2C(=O)N(Cc3ccccc3)C(=O)[C@@H]12)C(=O)Nc1ccc(OC)cc1,inactive
8,O=C(N/C(=C/c1ccc(F)cc1)C(=O)N1CCCC1)c1ccccc1,"inconclusive: 0.199 µM [inhibitor, full curve, poor fit]"
9,CCCc1cc(=O)oc2cc(OC(C)C(=O)NCc3cccnc3)ccc12 (centres undefined),inactive
10,Cc1ccc(OCCNC(=O)CCNS(=O)(=O)c2ccc3ccccc3c2)cc1,"inconclusive: 44.7 µM [inhibitor, partial curve, poor fit]"
11,CCOC(=O)C1CCCN(CC(O)COCc2ccc3c(c2)OCO3)C1 (centres undefined),"inconclusive: 0.794 µM [inhibitor, full curve, poor fit]"
12,COC(=O)c1cc(=O)cc(C(=O)OC)o1,"inconclusive: 89.1 µM [inhibitor, single point]"
13,Cc1ccc(C(=O)Nc2ccccc2N2CCN(C(=O)C(C)C)CC2)cc1C,inactive
14,NC(=S)N=Nc1c(O)[nH]c2cc(F)c(F)cc12,inactive
15,NC(=S)N/N=C/c1ccc2ccccc2n1,"inconclusive: 39.8 µM [inhibitor, partial curve, poor fit]"
16,CCCC[C@@H]1CNCCN1CC1(c2ccccc2)CC1,inactive
17,Cc1onc(-c2ccccc2)c1-c1nnc(CN2CCC(C(=O)N3CCCCCC3)CC2)o1,inactive
18,COc1cc(C2CC(=O)Nc3c(-c4ccc(C)cc4)csc32)ccc1OCC(N)=O (centres undefined),"inconclusive: 100 µM [inhibitor, partial curve, poor fit]"
19,Cc1c(Cl)cccc1NC(=O)Nc1ccn(C)n1,inactive
20,O=C(Nc1cccnc1)[C@@H]1C[C@H](c2ccc(F)cc2)N(Cc2ccccc2Cl)C1,"inconclusive: 89.1 µM [inhibitor, partial curve]"
21,CCN=C1NC(c2ccc(Cl)cc2)C(C(=O)OC)=C(C)N1Cc1cccc(C(F)(F)F)c1 (centres undefined),"inconclusive: 50.1 µM [inhibitor, partial curve, poor fit]"
22,CC(=O)NCCC(=O)N1Cc2ccccc2CC2(CCCN2CCc2ccc(C)cc2)C1 (centres undefined),"inconclusive: 35.5 µM [inhibitor, partial curve, poor fit]"

# Copied from the list:
# Potency, `Cc1onc(-c2ccccc2)c1-c1nnc(CN2CCC(C(=O)N3CCCCCC3)CC2)o1` is entered as inactive
# Potency, `COC(=O)c1cc(=O)cc(C(=O)OC)o1` is entered as inconclusive: 89.1 µM [inhibitor, single point]
# Potency, `CCOC(=O)C1CCCN(CC(O)COCc2ccc3c(c2)OCO3)C1` (centres undefined) is entered as inconclusive: 0.794 µM [inhibitor, full curve, poor fit]
